Reference: patent publication US20240025924A1, “HETEROCYCLE SUBSTITUTED KETONE DERIVATIVE, AND COMPOSITION AND MEDICINAL USE THEREOF” (SHANGHAI HAIYAN PHARMACEUTICAL TECHNOLOGY CO., LTD., priority 2021, published 2024)
Some entries share one result that the patent states for a list of compounds.

These molecules were tested on mouse colon cancer cell line MC38 (assay: MC38 subcutaneous tumor model). Conditions: female C57BL/6 mice, oral 10 mg/kg once daily.
Type: in vivo

Structure (SMILES) | tumor weight proliferation rate T/Cweight %
Nc1ccc2c(n1)CCN2C(=O)c1ncc(N2CCC3(CC2)Cc2ccccc2C3N)nc1N (stereo not drawn) [Compound 60] | less than 30%
Nc1nc2c(s1)CN(C(=O)c1ncc(N3CCC4(CC3)Cc3cc(F)ccc3C4N)nc1N)CC2(F)F (stereo not drawn) [Compound 114] | less than 30%
Nc1nc2c(s1)CN(C(=O)c1ncc(N3CCC4(CC3)Cc3ccccc3[C@H]4N)nc1N)CC2(F)F [Compound 63] | less than 30%
